Test results reported in EPA's CvTdb concentration-time database.
“And” between values parts separate entries of the source, which are not always exact repeats. Equal values may be shown once. Further values from the same series stand in other lists.

What was measured:
Assay in all cases: concentration in plasma after dosing
Mouse [1] = details: 5 min; dosed: 2-Hydroxy-4-methoxybenzophenone; 50 mg/kg; iv; Male; B6C3F1
Rat [2] = details: 0.5 h; dosed: 2-Hydroxy-4-methoxybenzophenone; 8 mg/kg; iv; Female; F344
Mouse [3] = details: 0.5 h; dosed: 2-Hydroxy-4-methoxybenzophenone; 250 mg/kg; oral; Female; B6C3F1
Rat [4] = details: dosed: 2-Hydroxy-4-methoxybenzophenone, 500 mg/kg, oral, Male, F344
Rat [5] = details: 4 h; dosed: 2-Hydroxy-4-methoxybenzophenone; 500 mg/kg; oral; Female; F344
Mouse [6] = details: 6 h; dosed: 2-Hydroxy-4-methoxybenzophenone; 500 mg/kg; oral; Male; B6C3F1
Mouse [7] = details: 12 h; dosed: 2-Hydroxy-4-methoxybenzophenone; 500 mg/kg; oral; Female; B6C3F1
Mouse [8] = details: 8 h; dosed: 2-Hydroxy-4-methoxybenzophenone; 500 mg/kg; oral; Male; B6C3F1
Mouse [9] = details: 6 h; dosed: 2-Hydroxy-4-methoxybenzophenone; 50 mg/kg; iv; Female; B6C3F1
Mouse [10] = details: 4 h; dosed: 2-Hydroxy-4-methoxybenzophenone; 250 mg/kg; oral; Female; B6C3F1
Mouse [11] = details: 8 h; dosed: 2-Hydroxy-4-methoxybenzophenone; 500 mg/kg; oral; Female; B6C3F1
Mouse [12] = details: 10 h; dosed: 2-Hydroxy-4-methoxybenzophenone; 500 mg/kg; oral; Female; B6C3F1
Rat [13] = details: dosed: 2-Hydroxy-4-methoxybenzophenone, 500 mg/kg, oral, Female, F344
Mouse [14] = details: 1 h; dosed: 2-Hydroxy-4-methoxybenzophenone; 50 mg/kg; iv; Female; B6C3F1
Mouse [15] = details: 1 h; dosed: 2-Hydroxy-4-methoxybenzophenone; 500 mg/kg; oral; Female; B6C3F1
Rat [16] = details: dosed: 2-Hydroxy-4-methoxybenzophenone, 100 mg/kg, oral, Female, F344
Rat [17] = details: 16 h; dosed: 2-Hydroxy-4-methoxybenzophenone; 500 mg/kg; oral; Male; F344
Rat [18] = details: dosed: 2-Hydroxy-4-methoxybenzophenone, 500 mg/kg, oral, Female, F344; remark: listed apart in the source
Rat [19] = details: dosed: 2-Hydroxy-4-methoxybenzophenone, 250 mg/kg, oral, Female, F344
Mouse [20] = details: 1 h; dosed: 2-Hydroxy-4-methoxybenzophenone; 50 mg/kg; iv; Male; B6C3F1
Mouse [21] = details: 7 h; dosed: 2-Hydroxy-4-methoxybenzophenone; 250 mg/kg; oral; Male; B6C3F1
Rat [22] = details: 1 h; dosed: 2-Hydroxy-4-methoxybenzophenone; 8 mg/kg; iv; Female; F344
Mouse [23] = details: 8 h; dosed: 2-Hydroxy-4-methoxybenzophenone; 500 mg/kg; oral; Female; B6C3F1; remark: listed apart in the source
Mouse [24] = details: 4 h; dosed: 2-Hydroxy-4-methoxybenzophenone; 50 mg/kg; iv; Male; B6C3F1
Mouse [25] = details: 0.5 h; dosed: 2-Hydroxy-4-methoxybenzophenone; 50 mg/kg; iv; Male; B6C3F1
Mouse [26] = details: 1 h; dosed: 2-Hydroxy-4-methoxybenzophenone; 250 mg/kg; oral; Male; B6C3F1
Rat [27] = details: dosed: 2-Hydroxy-4-methoxybenzophenone, 8 mg/kg, iv, Male, F344
Rat [28] = details: dosed: 2-Hydroxy-4-methoxybenzophenone, 100 mg/kg, oral, Female, F344; remark: listed apart in the source
Mouse [29] = details: 7 h; dosed: 2-Hydroxy-4-methoxybenzophenone; 250 mg/kg; oral; Male; B6C3F1; remark: listed apart in the source
Mouse [30] = details: 2.5 min; dosed: 2-Hydroxy-4-methoxybenzophenone; 500 mg/kg; oral; Male; B6C3F1
Rat [31] = details: dosed: Perfluorohexanoic Acid, 80 mg/kg, oral, Female, Harlan Sprague Dawley
Rat [32] = details: dosed: Perfluorohexanoic Acid, 40 mg/kg, oral, Female, Harlan Sprague Dawley
Rat [33] = details: dosed: Perfluorohexanoic Acid, 80 mg/kg, oral, Female, Harlan Sprague Dawley; remark: listed apart in the source
Rat [34] = details: 12 h; dosed: Perfluorohexanoic Acid; 80 mg/kg; oral; Male; Harlan Sprague Dawley
Rat [35] = details: dosed: Perfluorohexanoic Acid, 160 mg/kg, oral, Male, Harlan Sprague Dawley
Rat [36] = details: dosed: Perfluorohexanoic Acid, 160 mg/kg, oral, Male, Harlan Sprague Dawley; remark: listed apart in the source
Rat [37] = details: 0.5 h; dosed: Perfluorohexanoic Acid; 80 mg/kg; oral; Female; Harlan Sprague Dawley

O=C(c1ccccc1)c1ccc(O)cc1O [2,4-Dihydroxybenzophenone]
Details	concentration in plasma
Mouse [1]	5340 ng/mL
Mouse [3]	881 ng/mL
Mouse [6]	601 ng/mL
Mouse [7]	81.3 ng/mL and 125 ng/mL
Mouse [8]	154 ng/mL
Mouse [9]	123 ng/mL
Mouse [10]	228 ng/mL
Mouse [11]	80.2 ng/mL
Mouse [12]	7.99 ng/mL
Mouse [14]	103 ng/mL
Mouse [15]	443 ng/mL
Rat [2]	56.9 ng/mL
Rat [5]	297 ng/mL

concentration in plasma [ng/mL]
Details	1 h	2 h	5 min	8 h
Rat [4]	1180	–	–	182
Rat [13]	–	456	71.8	–

COc1ccc(C(=O)c2ccccc2)c(O)c1 [2-Hydroxy-4-methoxybenzophenone]
Details	concentration in plasma [ng/mL]
Rat [16], 0.5 h	38.7
Rat [16], 5 h	9.67
Rat [18], 2 h	759
Rat [18], 5 min	25.8
Rat [19], 0.5 h	453
Rat [19], 10 h	11.7
Rat [27], 0.5 h	791
Rat [27], 8 h	19.3
Rat [28], 1.5 h	33.9
Rat [28], 8 h	6.7

Details	concentration in plasma [ng/mL]
Mouse [20]	935
Mouse [21]	15.3
Mouse [23]	19.5
Mouse [24]	108
Mouse [25]	2840
Mouse [26]	107
Mouse [29]	16.6
Mouse [30]	21.7
Rat [17]	263
Rat [22]	146

O=C(O)C(F)(F)C(F)(F)C(F)(F)C(F)(F)C(F)(F)F [Perfluorohexanoic Acid]
Details	concentration in plasma [ng/mL]
Rat [31], 0.25 h	97900
Rat [31], 24 h	56.1
Rat [32], 0.5 h	56200
Rat [32], 9 h	131
Rat [33], 0.25 h	79700
Rat [33], 24 h	33.1
Rat [35], 0.75 h	171000
Rat [35], 12 h	4270
Rat [36], 3 h	182000
Rat [36], 5 min	92900

Details	concentration in plasma [ng/mL]
Rat [34]	3070
Rat [37]	56600
